Laboratory results taken from article PMC8605241, “Coevolution of the bacterial pheromone ComS and sensor ComR fine-tunes natural transformation in streptococci” (The Journal of Biological Chemistry, 2021).

Target: ComRSth-StreptagII protein (Streptococcus thermophilus ComR) (Streptococcus thermophilus)
Assay: fluorescence polarisation; competition: 250 nM ComR and 30 nM FITC N-labeled XIP-A5M with twofold serial dilutions of unlabeled XIP variant from 5 uM; IC50; both purified

For LPYFAGCL [XIPSth (Streptococcus thermophilus XIP, synthetic octapeptide)], the binding was “binds”.

These are yes or no findings as the source states them, for the method shown. A result given as binding can be weak or reduced; the word gives no strength.
